PubChem BioAssay AID1259266, Sanger Institute, 2017
This is a random part of 794 reagents tested. Of all reagents, 16 (2%) are marked active. 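Calls reflect knock-down alone, not drug synergy; viability seems capped at 1 and z-scores at 0.585.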 Entries without a mark were called inactive. Not given: the amount of reagent, the time to read-out.

Test: 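Search kinases and colorectal cancer genes for essential genes and drug synergy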 (primary screen)
System: LS123 human colorectal cancer cells
Knock-down reagent: siRNA pool against human genes
Challenge: anchor drugs BYL719 (1 µM), cetuximab (5 µg/ml) or trametinib (10 nM), each chosen to barely slow growth alone; DMSO vehicle as the drug-free arm
Measurement: 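Replicate-averaged viability scaled to non-targeting pools, robust z-score for siRNA alone, and a synergy score per anchor drug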
Scale: robust z-score, knock-down alone: higher = more cells surviving after knock-down; viability, knock-down alone: higher = more viable cells; synergy score with trametinib and synergy score with BYL719 and synergy score with cetuximab: higher = stronger synthetic lethality with drug
Active means: 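a knock-down counts as essential if its z-score without drug is under -3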
Calls: active = essential (knock-down alone cuts viability); inactive = no change

gene symbol,"robust z-score, knock-down alone","viability, knock-down alone (fraction of control)",synergy score with trametinib,synergy score with BYL719,synergy score with cetuximab
NUAK2,-1.34,0.886,0.0264,-0.0125,-0.00757
WEE1,-7.53 (active),0.518,-0.0408,-0.0188,0.0718
PIK3C2A,-3,0.787,-0.0467,-0.137,0.0252
FN3KRP,0.585,1,0.111,0.0235,0.159
ADCK2,-2.22,0.833,-0.0718,-0.101,-0.0203
PIK3CG,0.585,1,0.084,0.0126,0.0453
PIK3CB,0.585,1,-0.0821,-0.0464,-0.0122
KCNH2,-2.43,0.821,-0.0345,-0.0711,-0.0294
MUSK,-1.93,0.851,0.0944,-0.1,-0.0494
NME5,0.585,1,-0.12,-0.114,-0.0122
